Data published in article PMC7797672.
These are yes or no findings as the source states them, for the method shown. Binding seen in cells or lysates may run through a third protein. Some binding calls cover weakened binding; strength is not graded here.

The chains behind the UniProt entries cited, without tags or fusion partners.
UniProt P37231: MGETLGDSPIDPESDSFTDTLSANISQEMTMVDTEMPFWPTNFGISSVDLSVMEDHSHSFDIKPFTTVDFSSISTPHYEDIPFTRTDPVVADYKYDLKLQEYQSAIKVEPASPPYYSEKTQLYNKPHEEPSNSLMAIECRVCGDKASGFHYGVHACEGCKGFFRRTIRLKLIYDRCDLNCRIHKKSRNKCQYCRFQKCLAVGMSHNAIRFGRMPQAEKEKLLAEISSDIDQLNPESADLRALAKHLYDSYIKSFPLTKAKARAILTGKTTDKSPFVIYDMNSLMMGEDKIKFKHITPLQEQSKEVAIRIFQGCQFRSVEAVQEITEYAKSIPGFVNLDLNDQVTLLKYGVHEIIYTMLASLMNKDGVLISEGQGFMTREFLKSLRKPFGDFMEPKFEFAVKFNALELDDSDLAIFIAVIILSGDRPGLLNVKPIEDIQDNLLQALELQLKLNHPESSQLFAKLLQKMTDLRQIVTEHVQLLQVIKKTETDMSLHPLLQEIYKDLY
UniProt P37238: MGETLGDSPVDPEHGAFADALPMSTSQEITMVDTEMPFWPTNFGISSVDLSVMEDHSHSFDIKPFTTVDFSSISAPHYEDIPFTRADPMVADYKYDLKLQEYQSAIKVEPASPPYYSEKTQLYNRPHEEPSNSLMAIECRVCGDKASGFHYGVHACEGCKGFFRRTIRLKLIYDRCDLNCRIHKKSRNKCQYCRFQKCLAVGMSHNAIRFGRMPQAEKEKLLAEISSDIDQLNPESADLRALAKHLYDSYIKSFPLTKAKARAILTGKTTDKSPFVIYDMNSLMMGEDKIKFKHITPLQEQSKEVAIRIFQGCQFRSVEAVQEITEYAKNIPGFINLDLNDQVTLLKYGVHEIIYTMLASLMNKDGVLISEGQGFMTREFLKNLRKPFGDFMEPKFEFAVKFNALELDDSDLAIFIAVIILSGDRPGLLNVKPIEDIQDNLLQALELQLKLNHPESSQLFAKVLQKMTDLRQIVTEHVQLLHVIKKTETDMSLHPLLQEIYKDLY
UniProt Q8R4B8: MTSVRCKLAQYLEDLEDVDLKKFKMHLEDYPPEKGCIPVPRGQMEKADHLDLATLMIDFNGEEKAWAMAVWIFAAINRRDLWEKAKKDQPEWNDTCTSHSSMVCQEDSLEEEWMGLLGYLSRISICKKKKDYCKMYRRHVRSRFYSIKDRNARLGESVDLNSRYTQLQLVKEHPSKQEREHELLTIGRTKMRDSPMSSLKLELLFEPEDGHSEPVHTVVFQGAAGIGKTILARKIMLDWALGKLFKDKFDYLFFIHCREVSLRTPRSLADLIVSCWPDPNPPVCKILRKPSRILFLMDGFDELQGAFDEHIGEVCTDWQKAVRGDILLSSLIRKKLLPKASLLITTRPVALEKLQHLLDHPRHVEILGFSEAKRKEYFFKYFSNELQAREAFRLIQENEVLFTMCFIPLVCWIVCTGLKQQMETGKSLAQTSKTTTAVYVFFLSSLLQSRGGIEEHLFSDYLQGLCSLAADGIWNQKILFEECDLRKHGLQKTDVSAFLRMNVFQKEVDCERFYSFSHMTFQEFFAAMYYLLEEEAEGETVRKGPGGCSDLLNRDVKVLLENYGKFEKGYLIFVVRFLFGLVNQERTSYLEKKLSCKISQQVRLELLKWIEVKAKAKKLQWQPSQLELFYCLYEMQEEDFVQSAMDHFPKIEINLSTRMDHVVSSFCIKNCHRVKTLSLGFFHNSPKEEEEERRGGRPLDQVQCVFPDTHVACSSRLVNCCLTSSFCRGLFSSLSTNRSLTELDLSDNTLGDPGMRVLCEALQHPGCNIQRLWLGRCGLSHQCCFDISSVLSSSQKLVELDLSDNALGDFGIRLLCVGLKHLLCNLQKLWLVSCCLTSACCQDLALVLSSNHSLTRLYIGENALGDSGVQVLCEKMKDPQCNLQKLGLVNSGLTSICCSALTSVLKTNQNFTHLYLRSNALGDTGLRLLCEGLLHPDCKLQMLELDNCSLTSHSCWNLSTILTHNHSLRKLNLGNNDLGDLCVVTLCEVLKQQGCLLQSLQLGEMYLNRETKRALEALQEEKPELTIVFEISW
UniProt Q9ULZ3: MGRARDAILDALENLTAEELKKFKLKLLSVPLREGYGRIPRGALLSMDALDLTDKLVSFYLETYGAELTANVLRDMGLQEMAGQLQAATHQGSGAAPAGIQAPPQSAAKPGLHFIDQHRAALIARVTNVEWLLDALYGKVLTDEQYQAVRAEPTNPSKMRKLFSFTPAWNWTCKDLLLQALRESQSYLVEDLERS

Key:
[1] = target: Peroxisome proliferator activated receptor gamma (PPARγ), full-length (wild-type [WT]) (UniProt P37231); assay: co-IP; total lysate (1 mg) of HEK293T cells transfected for 24 h; primary or IgG control antibody (1 μg) overnight at 4 °C, Dynabeads protein G 10 min at RT, washed with PBST (0.1% Tween-20); immunoblot
[2] = target: PPARγ, endogenous in mouse peritoneal macrophages (mouse (endogenous in peritoneal macrophages)) (UniProt P37238); assay: co-IP; total lysate of mouse peritoneal macrophages, endogenous proteins; untreated, LPS-primed, or LPS plus nigericin; Dynabeads protein G; both orientations (Figure 3F and reverse co-IP precipitating PPARγ, Figure S2)
[3] = target: NLRP3, endogenous in mouse peritoneal macrophages (mouse (endogenous in peritoneal macrophages)) (UniProt Q8R4B8); assay: proximity ligation; Duolink PLA in situ in mouse peritoneal macrophages, endogenous proteins; untreated, LPS, LPS plus nigericin; Nlrp3-/- macrophages as control
[4] = target: NLRP3, endogenous in mouse peritoneal macrophages (mouse (endogenous in peritoneal macrophages)) (UniProt Q8R4B8); assay: co-IP; total lysate of mouse peritoneal macrophages, endogenous proteins; untreated, LPS-primed, or LPS plus nigericin; Dynabeads protein G; both orientations (Figure 3F and reverse co-IP precipitating PPARγ, Figure S2)

## ASC (apoptosis-associated speck-like protein containing a caspase activation and recruitment domain) (from UniProt Q9ULZ3 1-195)
[1]
  binding: no binding

## NLRP3, endogenous in mouse peritoneal macrophages (from UniProt Q8R4B8 1-1033)
[2]
  binding: binds

## PPARγ, endogenous in mouse peritoneal macrophages (from UniProt P37238 1-505)
[3]
  binding: binds
[4]
  binding: binds
